Literature values as cited in patent US11739305B2, “Sialyltransferase variants having neosialidase activity” (The Regents of the University of California, priority 2017, dated 2023).
At least one read-out could not be matched to a standard name with certainty.

Details: reported previously using Neu5Acα2-6GalβpNP as the substrate (Li, Chen, et al. Mol. BioSyst. 2011)

B1: hNEU2: human NEU2, an α2-3/6/8-sialidase (protein, UniProt Q9Y3R4 1-380, looked up)
Sialidase-2: MASLPVLQKESVFQSGAHAYRIPALLYLPGQQSLLAFAEQRASKKDEHAELIVLRRGDYDAPTHQVQWQAQEVVAQARLDGHRSMNPCPLYDAQTGTLFLFFIAIPGQVTEQQQLQTRANVTRLCQVTSTDHGRTWSSPRDLTDAAIGPAYREWSTFAVGPGHCLQLHDRARSLVVPAYAYRKLHPIQRPIPSAFCFLSHDHGRTWARGHFVAQDTLECQVAEVETGEQRVVTLNARSHLRARVQAQSTNDGLDFQESQLVKKLVEPPPQGCQGSVISFPSPRSGPGSPAQWLLYTHPTHSWQRADLGAYLNPRPPAPEAWSEPVLLAKGSCAYSDLQSMGTGPDGSPLFGCLYEANDYEEIVFLMFTLKQAFPAEYLPQ
- kcat/KM: 85 M⁻¹ s⁻¹
